{
  "sequences": {"note": "By UniProt entry, the sequences of proteins in these tests, tags left out. Where a name states a change or a piece, a line headed by the entry shows the natural chain unless it says otherwise.", "UniProt Q16678": "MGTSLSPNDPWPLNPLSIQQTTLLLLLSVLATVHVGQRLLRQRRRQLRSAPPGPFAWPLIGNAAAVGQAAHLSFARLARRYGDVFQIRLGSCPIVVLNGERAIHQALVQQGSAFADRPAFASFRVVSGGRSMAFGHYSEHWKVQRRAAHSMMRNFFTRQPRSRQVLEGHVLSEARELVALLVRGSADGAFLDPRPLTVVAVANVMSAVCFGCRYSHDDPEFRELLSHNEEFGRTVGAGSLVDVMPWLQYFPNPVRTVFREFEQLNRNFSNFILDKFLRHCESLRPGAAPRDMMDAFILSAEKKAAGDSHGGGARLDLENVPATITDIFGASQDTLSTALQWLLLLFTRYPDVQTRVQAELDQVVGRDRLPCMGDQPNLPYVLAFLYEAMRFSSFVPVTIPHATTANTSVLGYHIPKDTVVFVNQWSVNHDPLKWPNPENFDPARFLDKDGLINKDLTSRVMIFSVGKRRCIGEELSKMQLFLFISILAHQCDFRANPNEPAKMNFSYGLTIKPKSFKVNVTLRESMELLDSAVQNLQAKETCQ"},
  "source": "PubChem BioAssay AID2283097",
  "about": "(EPA ToxCast)",
  "target": "human CYP1B1, CYP1B1 (gene 1545) (UniProt Q16678)",
  "assay": "NVS_ADME_hCYP1B1: NovaScreen (NVS) CYP450-related Enzyme Activity (ADME) Assay for human CYP1B1",
  "protocol": "NVS_ADME_hCYP1B1 is a biochemical, single-readout assay that uses extracted gene-proteins in a cell-free assay. Measurements were taken 1 hour after chemical dosing in a 96-well plate.NVS_ADME_hCYP1B1 is one of one assay component(s) measured or calculated from the NVS_ADME_hCYP1B1 assay. It is designed to make measurements of enzyme activity, a form of enzyme reporter, as detected with fluorescence intensity signals by Fluorescence technology.Data from the assay component NVS_ADME_hCYP1B1 was analyzed into 1 assay endpoint. This assay endpoint, NVS_ADME_hCYP1B1, was analyzed in the positive analysis fitting direction relative to Acetonitrile as the negative control and baseline of activity. Using a type of enzyme reporter, loss-of-signal activity can be used to understand changes in the enzymatic activity as they relate to the gene CYP1B1. Furthermore, this assay endpoint can be referred to as a primary readout, because this assay has produced multiple assay endpoints where this one serves a enzymatic activity function. To generalize the intended target to other relatable targets, this assay endpoint is annotated to the cyp intended target family, where the subfamily is xenobiotic metabolism. […]",
  "note": "Only a part is listed here, and it is no random draw. Inconclusive results are not listed. Active and inactive are the calls of the source. How the source made its calls: active means hit-call score of the fitted dose curve at least 0.9, where 1 is the maximum; inconclusive means response in the unintended direction; inactive means score below 0.9.",
  "data": [
    {"smiles": "O=C(Nc1ccc([N+](=O)[O-])cc1Cl)c1cc(Cl)ccc1O", "values": [
      {"measurement": "AC50", "result": "active: 10 µM"}
    ]}
  ]
}
